Laboratory results published in PMC7140648.
No constants are given. Whether binding was seen depends on the method and setting. For some of these results: Binding seen in cells or lysates may run through a third protein. Some results given as binding are weak or reduced against the parent protein; the word gives no strength.

Amino acid sequences for entries named in this document (tags omitted).
UniProt Q04899: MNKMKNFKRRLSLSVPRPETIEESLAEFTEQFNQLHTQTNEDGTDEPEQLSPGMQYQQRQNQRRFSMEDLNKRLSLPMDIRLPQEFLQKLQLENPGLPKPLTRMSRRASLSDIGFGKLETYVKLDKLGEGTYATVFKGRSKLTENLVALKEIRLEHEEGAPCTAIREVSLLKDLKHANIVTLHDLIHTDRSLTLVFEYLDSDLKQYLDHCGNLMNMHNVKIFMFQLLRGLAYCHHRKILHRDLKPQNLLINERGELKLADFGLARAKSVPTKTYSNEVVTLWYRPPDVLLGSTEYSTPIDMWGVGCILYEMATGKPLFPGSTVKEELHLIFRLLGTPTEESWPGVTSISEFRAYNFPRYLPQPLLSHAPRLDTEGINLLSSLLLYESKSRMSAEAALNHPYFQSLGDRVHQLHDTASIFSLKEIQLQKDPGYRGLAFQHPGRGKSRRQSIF
UniProt P13861: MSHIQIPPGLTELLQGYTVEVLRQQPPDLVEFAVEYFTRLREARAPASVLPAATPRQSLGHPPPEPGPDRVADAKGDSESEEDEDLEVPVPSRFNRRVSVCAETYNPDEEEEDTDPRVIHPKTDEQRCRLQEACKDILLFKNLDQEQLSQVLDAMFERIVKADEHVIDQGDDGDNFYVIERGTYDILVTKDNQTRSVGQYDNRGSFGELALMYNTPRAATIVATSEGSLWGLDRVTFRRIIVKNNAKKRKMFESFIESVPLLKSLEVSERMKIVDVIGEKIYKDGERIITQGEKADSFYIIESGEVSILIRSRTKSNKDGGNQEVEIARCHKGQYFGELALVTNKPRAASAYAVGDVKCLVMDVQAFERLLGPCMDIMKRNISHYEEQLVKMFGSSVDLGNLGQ
UniProt P12367: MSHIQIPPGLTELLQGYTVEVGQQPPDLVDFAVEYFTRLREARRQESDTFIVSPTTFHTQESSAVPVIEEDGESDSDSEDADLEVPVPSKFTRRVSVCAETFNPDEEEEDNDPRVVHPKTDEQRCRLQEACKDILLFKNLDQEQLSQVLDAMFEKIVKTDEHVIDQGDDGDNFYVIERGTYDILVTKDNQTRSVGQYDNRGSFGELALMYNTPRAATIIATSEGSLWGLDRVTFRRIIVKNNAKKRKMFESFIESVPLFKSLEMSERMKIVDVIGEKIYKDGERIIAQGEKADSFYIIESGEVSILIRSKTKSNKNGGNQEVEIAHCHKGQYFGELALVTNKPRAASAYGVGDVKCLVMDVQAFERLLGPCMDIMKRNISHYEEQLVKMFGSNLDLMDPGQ

T1: murine STUB1 spot-synthesised peptides covering amino acids 150–190 (spots 1–5) (mouse) (UniProt Q9WUD1)
T1 sequence (peptide): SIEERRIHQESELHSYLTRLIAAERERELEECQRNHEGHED

B1: aquaporin-2 (AQP2), human, stably expressed in MCD4 cells (protein, UniProt P41181 1-271)
chain: MWELRSIAFSRAVFAEFLATLLFVFFGLGSALNWPQALPSVLQIAMAFGLGIGTLVQALGHISGAHINPAVTVACLVGCHVSVLRAAFYVAAQLLGAVAGAALLHEITPADIRGDLAVNALSNSTTAGQAVTVELFLTLQLVLCIFASTDERRGENPGTPALSIGFSVALGHLLGIHYTGCSMNPARSLAPAVVTGKFDDHWVFWIGPLVGAILGSLLYNYVLFPPAKSLSERLAVLKGLEPDTDWEEREVRRRQSVELHSPQSLPRGTKA

Columns and labels:
[1] = target: STUB1 (STIP1 homology and U-box containing protein 1) (mouse (endogenous in MCD4)) (UniProt Q9WUD1); assay: co-IP; anti-STUB1 on Protein A Dynabeads, MCD4 lysate in mild lysis buffer, 1-3 h at 4 °C; cells untreated or stimulated with forskolin; control IgG
[2] = target: T1, murine STUB1 spot-synthesised peptides covering amino acids 150–190 (spots 1–5) (mouse); assay: peptide or protein array; RII overlay: murine STUB1 spot-synthesised as 20-mer peptides with 5 residues offset, incubated with 32P-labelled recombinant human RIIα in the absence or presence of peptide L314E; both purified

| binding [1] | binding [2] | Molecule |
| --- | --- | --- |
| binds | – | cyclin-dependent kinase 18 (CDK18), endogenous (from UniProt Q04899 1-451) (enzyme) |
| – | binds | recombinant human RIIα subunits of PKA, 32P-labelled (from UniProt P13861 1-404) |
| binds | – | regulatory RIIα subunits of PKA, endogenous (from UniProt P12367 1-401) |
| binds | – | B1 |
